# Test results: the supplement of paper PMC10849652
# Chains of the proteins cited; added tags and fusions are not shown. Lines headed by an entry give the natural chain unless they say otherwise; changes in a name come on top.
# UniProt P46109: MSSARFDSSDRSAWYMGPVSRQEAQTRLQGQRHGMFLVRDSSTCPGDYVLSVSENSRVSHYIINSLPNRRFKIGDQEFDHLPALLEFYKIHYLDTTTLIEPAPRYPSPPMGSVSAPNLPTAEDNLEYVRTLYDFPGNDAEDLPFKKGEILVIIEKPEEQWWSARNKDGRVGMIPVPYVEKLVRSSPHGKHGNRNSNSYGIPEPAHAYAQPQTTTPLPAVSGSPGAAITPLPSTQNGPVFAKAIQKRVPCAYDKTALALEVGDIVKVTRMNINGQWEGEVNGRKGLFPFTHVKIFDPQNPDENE
# UniProt O75629: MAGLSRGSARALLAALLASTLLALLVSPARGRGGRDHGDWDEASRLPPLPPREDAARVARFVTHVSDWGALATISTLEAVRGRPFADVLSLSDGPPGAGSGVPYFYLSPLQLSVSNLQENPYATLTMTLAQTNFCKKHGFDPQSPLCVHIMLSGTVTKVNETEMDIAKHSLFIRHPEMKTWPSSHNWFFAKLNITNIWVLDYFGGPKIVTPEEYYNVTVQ
# UniProt Q9H3G5: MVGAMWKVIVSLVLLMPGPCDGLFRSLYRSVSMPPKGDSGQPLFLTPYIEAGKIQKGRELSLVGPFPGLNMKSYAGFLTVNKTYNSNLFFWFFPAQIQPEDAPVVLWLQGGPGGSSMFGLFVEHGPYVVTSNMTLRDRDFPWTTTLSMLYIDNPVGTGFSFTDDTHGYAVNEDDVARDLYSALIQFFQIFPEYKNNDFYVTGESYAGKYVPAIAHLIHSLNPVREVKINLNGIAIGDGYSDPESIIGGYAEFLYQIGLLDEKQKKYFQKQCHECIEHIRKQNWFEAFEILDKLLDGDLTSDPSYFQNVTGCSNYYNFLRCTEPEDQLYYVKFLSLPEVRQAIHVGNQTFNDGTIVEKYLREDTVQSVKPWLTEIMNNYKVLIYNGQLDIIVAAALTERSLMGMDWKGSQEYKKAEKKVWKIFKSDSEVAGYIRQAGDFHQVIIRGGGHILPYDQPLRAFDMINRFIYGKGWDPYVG
# UniProt P48729: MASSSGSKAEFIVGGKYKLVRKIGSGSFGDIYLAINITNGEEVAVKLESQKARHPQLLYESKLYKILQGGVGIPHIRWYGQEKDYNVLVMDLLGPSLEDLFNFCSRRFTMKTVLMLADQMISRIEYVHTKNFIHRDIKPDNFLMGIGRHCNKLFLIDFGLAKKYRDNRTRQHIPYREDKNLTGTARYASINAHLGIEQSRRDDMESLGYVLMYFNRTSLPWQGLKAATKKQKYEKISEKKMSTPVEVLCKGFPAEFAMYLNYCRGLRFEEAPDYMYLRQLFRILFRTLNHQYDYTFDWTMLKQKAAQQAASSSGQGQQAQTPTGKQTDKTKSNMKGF
# UniProt Q9NX08, whole entry, looked up: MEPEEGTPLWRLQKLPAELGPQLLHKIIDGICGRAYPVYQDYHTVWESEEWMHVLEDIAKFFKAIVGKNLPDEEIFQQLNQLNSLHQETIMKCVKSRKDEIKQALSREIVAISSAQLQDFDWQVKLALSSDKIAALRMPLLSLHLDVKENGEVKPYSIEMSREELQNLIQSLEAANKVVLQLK
# UniProt O95639, whole entry, looked up: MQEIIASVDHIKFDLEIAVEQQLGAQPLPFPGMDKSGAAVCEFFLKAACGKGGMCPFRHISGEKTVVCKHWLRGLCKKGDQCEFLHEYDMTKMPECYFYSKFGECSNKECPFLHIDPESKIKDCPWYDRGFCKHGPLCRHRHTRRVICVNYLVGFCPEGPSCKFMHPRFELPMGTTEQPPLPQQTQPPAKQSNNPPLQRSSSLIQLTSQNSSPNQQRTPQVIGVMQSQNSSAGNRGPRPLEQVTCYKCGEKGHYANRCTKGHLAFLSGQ
# UniProt Q7Z5Q1: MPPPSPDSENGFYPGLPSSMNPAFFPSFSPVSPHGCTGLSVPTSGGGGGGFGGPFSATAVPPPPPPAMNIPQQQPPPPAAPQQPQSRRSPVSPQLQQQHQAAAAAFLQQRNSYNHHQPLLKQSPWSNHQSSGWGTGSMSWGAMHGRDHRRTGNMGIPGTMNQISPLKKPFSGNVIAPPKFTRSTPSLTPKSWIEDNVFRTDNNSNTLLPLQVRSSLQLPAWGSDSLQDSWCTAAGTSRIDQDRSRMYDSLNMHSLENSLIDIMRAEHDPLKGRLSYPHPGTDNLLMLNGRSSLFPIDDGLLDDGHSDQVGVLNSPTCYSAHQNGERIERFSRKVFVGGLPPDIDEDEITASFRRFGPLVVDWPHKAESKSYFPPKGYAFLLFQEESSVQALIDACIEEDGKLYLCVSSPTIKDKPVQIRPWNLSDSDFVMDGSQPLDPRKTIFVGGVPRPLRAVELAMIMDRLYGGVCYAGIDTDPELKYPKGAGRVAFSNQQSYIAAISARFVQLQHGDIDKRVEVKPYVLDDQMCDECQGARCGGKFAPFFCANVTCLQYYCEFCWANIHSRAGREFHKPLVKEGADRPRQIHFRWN
# UniProt Q8N6G5: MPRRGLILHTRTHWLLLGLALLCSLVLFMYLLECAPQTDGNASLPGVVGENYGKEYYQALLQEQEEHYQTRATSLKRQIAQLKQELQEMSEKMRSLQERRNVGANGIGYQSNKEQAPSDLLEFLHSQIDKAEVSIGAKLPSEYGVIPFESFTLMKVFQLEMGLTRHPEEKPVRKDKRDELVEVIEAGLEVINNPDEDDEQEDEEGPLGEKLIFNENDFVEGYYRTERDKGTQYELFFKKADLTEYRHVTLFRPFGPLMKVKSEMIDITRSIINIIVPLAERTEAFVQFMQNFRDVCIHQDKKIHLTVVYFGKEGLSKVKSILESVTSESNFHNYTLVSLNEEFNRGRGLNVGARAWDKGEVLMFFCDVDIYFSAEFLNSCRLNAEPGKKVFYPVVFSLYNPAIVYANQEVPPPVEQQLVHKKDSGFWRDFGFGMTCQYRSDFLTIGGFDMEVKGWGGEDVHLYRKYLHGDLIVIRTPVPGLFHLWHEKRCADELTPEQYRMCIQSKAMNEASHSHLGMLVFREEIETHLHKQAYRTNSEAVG
# UniProt P15169: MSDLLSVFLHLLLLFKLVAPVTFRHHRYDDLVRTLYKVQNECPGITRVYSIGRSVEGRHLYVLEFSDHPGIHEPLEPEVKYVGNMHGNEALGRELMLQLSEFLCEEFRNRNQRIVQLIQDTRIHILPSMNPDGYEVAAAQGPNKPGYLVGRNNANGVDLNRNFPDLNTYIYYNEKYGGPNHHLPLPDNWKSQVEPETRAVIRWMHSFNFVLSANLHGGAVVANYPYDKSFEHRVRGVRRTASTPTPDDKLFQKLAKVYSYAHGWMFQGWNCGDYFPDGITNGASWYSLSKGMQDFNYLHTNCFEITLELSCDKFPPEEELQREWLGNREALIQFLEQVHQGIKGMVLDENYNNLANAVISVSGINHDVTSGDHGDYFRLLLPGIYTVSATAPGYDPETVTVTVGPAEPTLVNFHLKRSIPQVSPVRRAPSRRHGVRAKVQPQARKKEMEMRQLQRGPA
# UniProt Q9BWP8: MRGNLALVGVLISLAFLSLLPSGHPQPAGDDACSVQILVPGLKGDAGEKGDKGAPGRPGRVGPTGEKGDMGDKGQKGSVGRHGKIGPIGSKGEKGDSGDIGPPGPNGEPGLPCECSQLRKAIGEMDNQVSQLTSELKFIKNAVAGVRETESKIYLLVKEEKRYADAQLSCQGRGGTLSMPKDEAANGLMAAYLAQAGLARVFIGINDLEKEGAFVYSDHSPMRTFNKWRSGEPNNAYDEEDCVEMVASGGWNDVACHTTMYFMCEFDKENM
# UniProt P54108: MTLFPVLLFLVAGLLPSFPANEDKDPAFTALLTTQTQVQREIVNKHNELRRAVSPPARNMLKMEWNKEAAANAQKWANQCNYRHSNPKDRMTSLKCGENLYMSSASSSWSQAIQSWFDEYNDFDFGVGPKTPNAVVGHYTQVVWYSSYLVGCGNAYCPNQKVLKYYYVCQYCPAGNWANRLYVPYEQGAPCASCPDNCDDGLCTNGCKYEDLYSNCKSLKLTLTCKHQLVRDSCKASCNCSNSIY
# UniProt Q70SY1: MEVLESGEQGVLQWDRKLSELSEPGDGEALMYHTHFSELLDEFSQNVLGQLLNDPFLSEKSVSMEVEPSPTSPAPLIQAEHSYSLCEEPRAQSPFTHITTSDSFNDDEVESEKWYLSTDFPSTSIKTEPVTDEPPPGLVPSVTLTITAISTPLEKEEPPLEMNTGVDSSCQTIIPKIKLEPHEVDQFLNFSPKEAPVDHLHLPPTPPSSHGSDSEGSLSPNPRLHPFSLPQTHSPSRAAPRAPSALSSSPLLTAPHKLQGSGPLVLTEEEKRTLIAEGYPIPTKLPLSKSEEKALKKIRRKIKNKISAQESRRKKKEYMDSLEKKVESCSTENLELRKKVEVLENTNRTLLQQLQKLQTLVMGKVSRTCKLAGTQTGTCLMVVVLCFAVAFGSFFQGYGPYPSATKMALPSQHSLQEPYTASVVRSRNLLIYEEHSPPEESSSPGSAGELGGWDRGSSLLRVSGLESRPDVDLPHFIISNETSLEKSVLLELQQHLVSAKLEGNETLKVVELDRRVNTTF
# UniProt Q8NHY2, whole entry, looked up: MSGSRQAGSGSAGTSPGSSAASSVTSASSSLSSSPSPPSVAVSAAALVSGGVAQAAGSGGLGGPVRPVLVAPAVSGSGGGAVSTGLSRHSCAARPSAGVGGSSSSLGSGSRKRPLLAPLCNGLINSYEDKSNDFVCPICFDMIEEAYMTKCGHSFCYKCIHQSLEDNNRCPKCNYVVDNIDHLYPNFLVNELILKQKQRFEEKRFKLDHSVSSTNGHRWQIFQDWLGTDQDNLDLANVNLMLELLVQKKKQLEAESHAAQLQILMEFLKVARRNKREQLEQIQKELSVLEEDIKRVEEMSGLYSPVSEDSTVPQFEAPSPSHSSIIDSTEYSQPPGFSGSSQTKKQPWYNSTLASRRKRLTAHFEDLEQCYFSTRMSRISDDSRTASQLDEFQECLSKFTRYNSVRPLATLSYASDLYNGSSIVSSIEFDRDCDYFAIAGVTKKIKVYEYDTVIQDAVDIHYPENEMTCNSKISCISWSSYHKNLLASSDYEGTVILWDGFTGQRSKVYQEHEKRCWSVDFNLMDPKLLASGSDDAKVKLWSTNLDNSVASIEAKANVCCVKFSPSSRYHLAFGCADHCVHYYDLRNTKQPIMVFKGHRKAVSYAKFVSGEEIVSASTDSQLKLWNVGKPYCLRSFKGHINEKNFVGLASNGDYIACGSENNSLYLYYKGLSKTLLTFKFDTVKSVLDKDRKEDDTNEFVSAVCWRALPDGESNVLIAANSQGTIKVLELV
# UniProt Q14061: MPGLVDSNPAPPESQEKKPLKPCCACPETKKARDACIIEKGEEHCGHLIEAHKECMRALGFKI
# UniProt Q2VPA4, whole entry, looked up: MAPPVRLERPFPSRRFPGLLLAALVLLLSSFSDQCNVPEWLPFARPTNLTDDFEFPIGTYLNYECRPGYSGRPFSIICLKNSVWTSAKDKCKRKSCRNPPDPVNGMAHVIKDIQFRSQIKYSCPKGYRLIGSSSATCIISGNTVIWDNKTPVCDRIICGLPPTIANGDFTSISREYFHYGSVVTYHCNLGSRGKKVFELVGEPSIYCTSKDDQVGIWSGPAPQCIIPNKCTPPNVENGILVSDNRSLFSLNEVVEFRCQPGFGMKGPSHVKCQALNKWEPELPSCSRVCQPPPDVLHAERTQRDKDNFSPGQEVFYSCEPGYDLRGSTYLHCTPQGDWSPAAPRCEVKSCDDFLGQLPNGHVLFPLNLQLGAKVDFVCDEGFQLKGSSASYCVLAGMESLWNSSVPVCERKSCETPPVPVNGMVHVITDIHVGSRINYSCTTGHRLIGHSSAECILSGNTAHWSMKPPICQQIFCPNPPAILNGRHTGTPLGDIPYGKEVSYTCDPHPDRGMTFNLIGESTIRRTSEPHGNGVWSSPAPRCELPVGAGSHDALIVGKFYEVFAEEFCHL
# UniProt P02511: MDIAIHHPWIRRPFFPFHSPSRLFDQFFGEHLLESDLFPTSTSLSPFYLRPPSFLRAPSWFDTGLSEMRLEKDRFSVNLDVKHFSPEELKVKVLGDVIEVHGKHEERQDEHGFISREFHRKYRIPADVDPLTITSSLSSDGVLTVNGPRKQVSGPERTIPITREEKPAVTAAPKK
# UniProt P78560: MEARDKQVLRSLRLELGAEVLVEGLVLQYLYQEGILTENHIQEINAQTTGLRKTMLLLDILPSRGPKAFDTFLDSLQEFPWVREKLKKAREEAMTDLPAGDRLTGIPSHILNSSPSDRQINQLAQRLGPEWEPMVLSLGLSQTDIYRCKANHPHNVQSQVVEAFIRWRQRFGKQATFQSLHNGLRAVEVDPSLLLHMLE
# UniProt P48730: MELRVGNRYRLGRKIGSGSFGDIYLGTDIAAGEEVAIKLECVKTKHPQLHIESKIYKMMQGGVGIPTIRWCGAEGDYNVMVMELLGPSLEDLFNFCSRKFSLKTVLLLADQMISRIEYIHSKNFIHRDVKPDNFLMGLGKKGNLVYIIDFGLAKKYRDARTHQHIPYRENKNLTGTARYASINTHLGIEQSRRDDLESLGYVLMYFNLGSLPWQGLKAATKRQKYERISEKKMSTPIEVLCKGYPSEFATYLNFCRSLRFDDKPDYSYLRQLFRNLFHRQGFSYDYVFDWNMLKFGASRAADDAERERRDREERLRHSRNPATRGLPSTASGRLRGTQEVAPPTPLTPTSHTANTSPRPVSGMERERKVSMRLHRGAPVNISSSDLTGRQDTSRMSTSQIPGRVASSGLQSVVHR
# The other results are listed elsewhere or left out.
# Columns and labels:
# Experiment in all cases: log2 fold change, soluble protein after heating vs DMSO (PISA); higher = thermal stabilisation; K562 cells, 10 uM, 30 min; active = over 0.2 and 3.5 SD of the protein, either way, in both replicates (recomputed)
# [1] = compound: CC[C@@H]1C(=O)N(C)c2cnc(Nc3ccc(C(=O)NC4CCN(C)CC4)cc3OC)nc2N1C1CCCC1
# Method in brief: (§1)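 K562 cells at 2×10^6 cells/mL were given 10 μM compound for 30 min. Aliquots then went through 3 min of heating across 48°C-58°C, were pooled, and were extracted in PBS with 0.5% NP-40 at 4°C, and the supernatant after 21,000xg for 90 min was quantified by TMTpro 16plex LC-MS/MS with channel sums equalised. Thermal stability relative to control samples, from duplicates, is given as log2 fold change.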
# [2] = compound: CC[C@@H]1C(=O)N(C)c2cnc(Nc3ccc(C(=O)N[C@H]4CC[C@H](N5CCN(CC6CC6)CC5)CC4)cc3OC)nc2N1C(C)C [volasertib]
# Method in brief: as §1
# [3] = compound: CC[C@H](C)N1C=C(C2=C(C=C(C=C21)C3=CN=C(C=C3)N4CCNCC4)C(=O)NCC5=C(C=C(NC5=O)C)C)C
# Method in brief: as §1
# [4] = compound: CC[C@H](C)[C@@H](C(=O)N[C@@H]([C@@H](C)O)C(=O)N[C@@H](CC(C)C)C(=O)[C@]1(CO1)C)NC(=O)[C@H]([C@@H](C)CC)N(C)C(=O)C [epoxomicin]
# Method in brief: as §1
# [5] = compound: CCn1cc(-c2ccnc3[nH]c(-c4cccc(CN(C)C)c4)cc23)c(-c2ccc(NC(=O)N(C)C)cc2)n1
# Method in brief: as §1
# [6] = compound: CN(C)CC(=O)Nc1ccc2[nH]c(=O)c3ccccc3c2c1
# Method in brief: as §1
# [7] = compound: CN1C2=C(C3=C1C(=O)N(N=C3)CC4=CC(=CC=C4)N)SC(=C2)S(=O)C
# Method in brief: as §1
# [8] = compound: CN1CCC(CNc2ccc3ncc(-c4cccc(OC(F)(F)F)c4)n3n2)CC1
# Method in brief: as §1
# [9] = compound: CCn1c(C(=O)N(C2CC2)C2CC2)cc2c3c(ncn3C)c(Nc3cc(C)n(C)n3)nc21
# Method in brief: as §1
# [10] = compound: CN(CCOC1=CC=C(C=C1)C[C@H]2C(=O)NC(=O)S2)C3=CC=CC=N3 (racemic) [rosiglitazone]
# Method in brief: as §1
Target,log2 fold change [1],log2 fold change [2],log2 fold change [3],log2 fold change [4],log2 fold change [5],log2 fold change [6],log2 fold change [7],log2 fold change [8],log2 fold change [9],log2 fold change [10]
CPSF6 isoform 2 (UniProt Q16630),inactive: 0.016,inactive: 0.02,inactive: 0.016,inactive: -0.014,inactive: -0.036,inactive: -0.062,inactive: 0.004,inactive: -0.014,,
CRKL (UniProt P46109),inactive: -0.012,inactive: -0.039,inactive: 0.007,inactive: 0,inactive: 0,inactive: 0.012,inactive: 0,inactive: -0.016,,
CREG1 (UniProt O75629),inactive: 0.014,inactive: -0.043,inactive: -0.043,inactive: -0.106,inactive: 0.093,inactive: 0.039,inactive: -0.027,inactive: -0.029,inactive: 0.005,inactive: 0.002
COX11 (UniProt Q9Y6N1),inactive: 0.03,inactive: -0.073,inactive: 0.066,inactive: 0.004,inactive: -0.069,inactive: -0.01,inactive: 0.006,inactive: 0.019,inactive: 0.022,inactive: 0.051
CORO1B (UniProt Q9BR76),inactive: -0.046,inactive: -0.063,inactive: 0.033,inactive: 0.019,inactive: -0.052,inactive: 0.01,inactive: -0.046,inactive: 0.005,inactive: -0.033,inactive: 0.023
CSNK1A1L (UniProt Q8N752),inactive: 0.008,inactive: -0.116,inactive: 0.054,inactive: -0.081,inactive: -0.044,inactive: -0.165,inactive: 0.031,inactive: 0.168,inactive: 0.042,inactive: -0.001
CPSF3 (UniProt Q9UKF6),inactive: -0.105,active: -0.252,inactive: 0.043,inactive: -0.013,inactive: -0.008,inactive: 0.033,inactive: -0.032,inactive: 0.003,,
COX7C (UniProt P15954),inactive: 0.035,inactive: -0.163,inactive: -0.114,inactive: 0.203,inactive: 0.095,inactive: -0.058,inactive: -0.026,inactive: -0.052,,
CPVL (UniProt Q9H3G5),inactive: 0.023,inactive: -0.196,inactive: -0.108,inactive: 0,inactive: -0.011,inactive: -0.091,inactive: -0.019,inactive: -0.275,inactive: -0.03,inactive: 0.143
CRPPA (UniProt A4D126),inactive: 0.047,inactive: 0.029,inactive: -0.019,inactive: 0.001,inactive: 0.012,inactive: 0.016,inactive: -0.089,inactive: -0.066,inactive: -0.018,inactive: 0.029
COQ7 (UniProt Q99807),inactive: -0.035,inactive: -0.009,inactive: -0.01,inactive: 0.013,inactive: -0.041,inactive: -0.047,inactive: 0.023,inactive: -0.05,,
CPNE1 (UniProt Q99829),inactive: -0.018,inactive: -0.035,inactive: -0.012,inactive: 0.049,inactive: -0.102,inactive: -0.032,inactive: -0.055,inactive: 0.063,inactive: -0.004,inactive: 0.018
CSNK1A1 (UniProt P48729),inactive: -0.011,inactive: -0.117,inactive: 0.057,inactive: 0.046,inactive: 0.008,inactive: -0.179,inactive: 0.072,inactive: -0.067,,
CSDE1 isoform 4 (UniProt O75534),inactive: 0.07,inactive: -0.321,inactive: 0.115,inactive: -0.172,inactive: 0.122,inactive: 0.011,inactive: 0.275,inactive: -0.055,inactive: -0.064,inactive: 0.017
COPS6 (UniProt Q7L5N1),inactive: -0.02,inactive: -0.033,inactive: 0.007,inactive: 0.045,inactive: -0.04,inactive: 0.018,inactive: -0.002,inactive: 0.016,inactive: 0.002,inactive: 0.012
COMMD8 (UniProt Q9NX08),inactive: -0.107,inactive: -0.303,inactive: 0.07,inactive: -0.01,inactive: 0.045,,inactive: -0.009,inactive: -0.01,inactive: 0.028,inactive: 0.006
COL2A1 (UniProt P02458),,,,,,inactive: -0.136,inactive: 0.156,,,
CORO6 isoform 5 (UniProt Q6QEF8),,,,inactive: -0.004,,inactive: 0.097,,,,
CRMP1 isoform 2 (UniProt Q14194),,,inactive: 0.2,,inactive: -0.198,inactive: -0.072,inactive: -0.25,inactive: 0.038,,
CPSF4 (UniProt O95639),,,inactive: 0.063,,inactive: 0.103,,,inactive: 0.068,,inactive: -0.102
CRAT (UniProt P43155),,inactive: -0.191,,,,,,,,
CRABP1 (UniProt P29762),,,,,inactive: -0.4,inactive: -0.256,,inactive: 0.045,,
CPEB2 isoform 9 (UniProt Q7Z5Q1),,inactive: -0.317,,inactive: 0.092,,inactive: 0.135,inactive: 0.051,,inactive: 0.16,inactive: 0.084
CSGALNACT2 (UniProt Q8N6G5),,,inactive: -0.045,inactive: 0.016,,,,,,inactive: -0.205
CROCCP2 (UniProt Q86T23),inactive: 0.042,,,,,,,,inactive: -0.05,inactive: 0.036
CPN1 (UniProt P15169),,,,,,inactive: -0.089,inactive: 0.328,,inactive: 0.1,inactive: 0.201
CRY1 (UniProt Q16526),,inactive: -0.336,inactive: 0.054,inactive: 0.01,inactive: -0.247,inactive: -0.046,,inactive: -0.003,,
CPLX1 (UniProt O14810),,,,inactive: 0.014,inactive: -0.044,inactive: 0.069,inactive: 0.058,inactive: 0.043,inactive: -0.188,inactive: -0.007

Target,log2 fold change [1],log2 fold change [2],log2 fold change [3],log2 fold change [4],log2 fold change [5],log2 fold change [6],log2 fold change [7],log2 fold change [8],log2 fold change [9],log2 fold change [10]
COLEC11 isoform 10 (UniProt Q9BWP8),,,inactive: 0.01,inactive: -0.116,,inactive: -0.041,inactive: 0.147,,,inactive: -0.016
CRISP3 isoform 3 (UniProt P54108),,,,,,,,,,inactive: -0.276
CRTC1 isoform 2 (UniProt Q6UUV9),,inactive: 0.211,,inactive: -0.062,inactive: 0.034,inactive: -0.069,inactive: -0.153,inactive: 0.101,,
CSNK1G2 (UniProt P78368),,,inactive: -0.027,inactive: -0.014,inactive: 0.164,,,inactive: -0.185,,
CRYM (UniProt Q14894),,,,inactive: -0.002,inactive: -0.481,,inactive: -0.281,inactive: 0.022,inactive: 0,
CRYBB1 (UniProt P53674),,,,inactive: -0.16,,,inactive: -0.156,,inactive: -0.288,
CREB3L2 (UniProt Q70SY1),,,inactive: 0.067,inactive: 0.035,,inactive: 0.069,,,,
CRABP2 (UniProt P29373),,,,inactive: 0.116,inactive: 0.271,,inactive: 0.175,inactive: 0.038,,
CSNK1A1 isoform 3 (UniProt P48729),,inactive: -0.224,,,,,,,,
COP1 (UniProt Q8NHY2),,inactive: -0.054,,,,,,,,
COX17 (UniProt Q14061),,,inactive: 0.044,inactive: 0.504,inactive: -0.154,inactive: -0.051,inactive: -0.146,inactive: 0.055,,
CR1L (UniProt Q2VPA4),,,,,,,,,inactive: -0.036,
CPTP (UniProt Q5TA50),,,,,,,,,inactive: 0.004,
CP (UniProt P00450),,inactive: 0.147,,,,,,,,inactive: -0.104
CRNN (UniProt Q9UBG3),,,,,,,,,inactive: 0.082,inactive: 0.247
COMMD3-BMI1 (UniProt R4GMX3),,inactive: 0.038,inactive: 0.062,inactive: 0.026,inactive: 0.006,,,inactive: -0.105,,
CRYAB (UniProt P02511),inactive: 0.433,,,inactive: 0.077,,inactive: 0.131,inactive: 0.332,,,
CSNK1G1 (UniProt Q9HCP0),,,inactive: -0.224,inactive: -0.077,,,inactive: 0.132,,inactive: -0.152,inactive: -0.076
CRY2 (UniProt Q49AN0),,,inactive: 0.331,,,inactive: 0.046,inactive: -0.03,,,inactive: 0.047
CRADD (UniProt P78560),,,,,,inactive: 0.272,,,inactive: 0.028,
CSNK1D (UniProt P48730),,inactive: -0.133,inactive: 0,inactive: 0.026,,inactive: -0.019,inactive: 0.15,inactive: 0.315,,
COL25A1 (UniProt Q9BXS0),,,,inactive: -0.19,,,,,inactive: 0.051,inactive: 0.347
CPA4 (UniProt Q9UI42),inactive: 0.284,,,,,inactive: 0.809,,,,
COQ10B (UniProt Q9H8M1),inactive: 0.05,,,inactive: 0.066,,,inactive: 0.094,,,inactive: 0.035
COL3A1 (UniProt P02461),,inactive: 0.199,,inactive: -0.038,inactive: -0.016,inactive: -0.176,inactive: 0.104,inactive: 0.24,inactive: 0.06,
CSNK1G3 (UniProt Q9Y6M4),,inactive: 0.237,inactive: 0.017,inactive: -0.024,inactive: 0.04,inactive: -0.069,inactive: 0.141,inactive: 0.121,inactive: 0.117,inactive: -0.079
CRTC3 (UniProt Q6UUV7),,inactive: 0.051,,inactive: 0.094,,inactive: -0.117,,,,

# Part of the list above, with tabs:
Target	log2 fold change [1]	log2 fold change [2]	log2 fold change [3]	log2 fold change [4]	log2 fold change [5]	log2 fold change [6]	log2 fold change [7]	log2 fold change [8]	log2 fold change [9]	log2 fold change [10]
CRYM (UniProt Q14894)				inactive: -0.002	inactive: -0.481		inactive: -0.281	inactive: 0.022	inactive: 0	
CRYBB1 (UniProt P53674)				inactive: -0.16			inactive: -0.156		inactive: -0.288	
CREB3L2 (UniProt Q70SY1)			inactive: 0.067	inactive: 0.035		inactive: 0.069				
CRABP2 (UniProt P29373)				inactive: 0.116	inactive: 0.271		inactive: 0.175	inactive: 0.038		
